The values below come from the supplement of paper PMC6331611.

This test concerns Salmonella enterica serovar Typhimurium SL1344. Put plainly: normalized intracellular growth (luminescence, IQM-normalized) in RAW264.7 macrophages (fraction of plate interquartile mean); higher = more bacterial growth (less inhibition). The following applies: 10 µM.

± gives the standard deviation of the averaged measurements. The full ranking holds about 1,600 compounds; the median of “normalized intracellular growth (luminescence, IQM-normalized) in RAW264.7 macrophages” is about 1, and the lowest 2% start at about 0.43. The list shows a part of the results.

For the compound `CC[C@H](C)C(=O)O[C@H]1CCC=C2C=C[C@H](C)[C@H](CC[C@@H]3C[C@@H](O)CC(=O)O3)[C@H]21`, the normalized intracellular growth (time point: T3 (3 h)) amounted to 0.976 ± 0.08 and the normalized intracellular growth (time point: Tfinal (~6 h)) was 0.837 ± 0.19.

Turning to `Nc1cc(C(Cl)=C(Cl)Cl)c(S(N)(=O)=O)cc1S(N)(=O)=O`, the normalized intracellular growth by setting is: (time point: T3 (3 h)) 1.03 ± 0.061; (time point: Tfinal (~6 h)) 1.12 ± 0.16.

Compound `Cc1nnc(NS(=O)(=O)c2ccc(N)cc2)s1` returned a normalized intracellular growth (time point: T3 (3 h)) of 1.02 ± 0.04 and a normalized intracellular growth (time point: Tfinal (~6 h)) of 1.01 ± 0.021.

For the compound `O=C1C2CC3CC1CC(O)(C3)C2`, the normalized intracellular growth stood at 1 ± 0.017 (time point: T3 (3 h)) and 1.06 ± 0.065 (time point: Tfinal (~6 h)).

With `C1CCN2C[C@@H]3C[C@@H](CN4CCCC[C@@H]34)[C@H]2C1`, the normalized intracellular growth is, setting by setting: (time point: T3 (3 h)) 0.991 ± 0.035; (time point: Tfinal (~6 h)) 1.08 ± 0.04.

Take `CC1CC(OC(=O)C(O)c2ccccc2)CC(C)(C)N1C` (centres undefined): the normalized intracellular growth was 0.882 ± 0.088 (time point: T3 (3 h)) and 0.983 ± 0.09 (time point: Tfinal (~6 h)).

In the case of `O=C(O)CCCc1ccccc1`, the normalized intracellular growth by setting is: (time point: T3 (3 h)) 0.951 ± 0.023; (time point: Tfinal (~6 h)) 1.11 ± 0.078.

Turning to `Cc1cnc(NC(=O)C2=C(O)c3ccccc3S(=O)(=O)N2C)s1`, the normalized intracellular growth (time point: T3 (3 h)) worked out at 1.03 ± 0.041 and the normalized intracellular growth (time point: Tfinal (~6 h)) worked out at 1.06 ± 0.12.

As to `CC1(C)O[C@@H]2C[C@H]3[C@@H]4CCC5=CC(=O)C=C[C@]5(C)[C@@]4(F)[C@@H](O)C[C@]3(C)[C@]2(C(=O)CO)O1`, the normalized intracellular growth was 0.848 ± 0.021 (time point: T3 (3 h)) and 1.33 ± 0.069 (time point: Tfinal (~6 h)).

The compound `OC1(c2ccc(Cl)c(C(F)(F)F)c2)CCN(CCCC(c2ccc(F)cc2)c2ccc(F)cc2)CC1` came in with a normalized intracellular growth (time point: T3 (3 h)) of 0.949 ± 0.056 and a normalized intracellular growth (time point: Tfinal (~6 h)) of 1.12 ± 0.18.

As for `C[C@@H]1C[C@H]2[C@@H]3CCC4=CC(=O)C=C[C@]4(C)[C@@]3(F)[C@@H](O)C[C@]2(C)[C@@]1(O)C(=O)CO`, the normalized intracellular growth stood at 1 ± 0.062 (time point: T3 (3 h)) and 0.99 ± 0.075 (time point: Tfinal (~6 h)).

Consider `O=C(O)COC(=O)Cc1ccccc1Nc1c(Cl)cccc1Cl`, for which the normalized intracellular growth runs as follows: (time point: T3 (3 h)) 1.13 ± 0.02; (time point: Tfinal (~6 h)) 0.853 ± 0.024.

Regarding `CCn1nc(C(=O)O)c(=O)c2cc3c(cc21)OCO3`, the normalized intracellular growth runs as follows: (time point: T3 (3 h)) 0.833 ± 0.03; (time point: Tfinal (~6 h)) 0.705 ± 0.046.

For `Cc1cc(/C=C/c2ccc3cc(N(C)C)ccc3[n+]2C)c(C)n1-c1ccccc1`, the normalized intracellular growth stood at 1.05 ± 0.03 (time point: T3 (3 h)) and 1.07 ± 0.044 (time point: Tfinal (~6 h)).

`CC(C)(Oc1ccc(C(=O)c2ccc(Cl)cc2)cc1)C(=O)O` yielded a normalized intracellular growth (time point: T3 (3 h)) of 0.98 ± 0.0072 and a normalized intracellular growth (time point: Tfinal (~6 h)) of 1.07 ± 0.11.

`CCCCNc1ccc(C(=O)OCCOCCOCCOCCOCCOCCOCCOCCOCCOC)cc1`: the normalized intracellular growth worked out at 0.91 ± 0.039 (time point: T3 (3 h)) and 0.9637 ± 0.006 (time point: Tfinal (~6 h)).

`CCN1CCN(C(=O)N[C@@H](C(=O)N[C@@H]2C(=O)N3C(C(=O)O)=C(CSc4nnnn4C)CS[C@H]23)c2ccc(O)cc2)C(=O)C1=O`: the normalized intracellular growth worked out at 0.9924 ± 0.0029 (time point: T3 (3 h)) and 1.08 ± 0.021 (time point: Tfinal (~6 h)).

With `CN(C)CCOc1ccc(/C(=C(/CCCl)c2ccccc2)c2ccccc2)cc1`, the normalized intracellular growth amounted to 0.921 ± 0.0094 (time point: T3 (3 h)) and 0.791 ± 0.13 (time point: Tfinal (~6 h)).

Regarding `Cc1ccc(Cl)c(Nc2ccccc2C(=O)O)c1Cl`, the normalized intracellular growth amounted to 0.756 ± 0.089 (time point: T3 (3 h)) and 0.786 ± 0.19 (time point: Tfinal (~6 h)).

Take `CC1=Nc2ccc(Cl)cc2S(=O)(=O)N1`: the normalized intracellular growth came out at 1.02 ± 0.014 (time point: T3 (3 h)) and 0.976 ± 0.041 (time point: Tfinal (~6 h)).

As to `CC(C(=O)O)c1ccc(N2Cc3ccccc3C2=O)cc1` (centres undefined), the normalized intracellular growth stood at 1.02 ± 0.02 (time point: T3 (3 h)) and 0.95 ± 0.024 (time point: Tfinal (~6 h)).

With `Oc1ccc(OCc2ccccc2)cc1`, the normalized intracellular growth (time point: T3 (3 h)) worked out at 1.17 ± 0.058 and the normalized intracellular growth (time point: Tfinal (~6 h)) was 0.8 ± 0.3.

Turning to `C[C@H]1C[C@H]2[C@@H]3CCC4=CC(=O)C=C[C@]4(C)[C@@]3(F)[C@@H](O)C[C@]2(C)[C@@]1(O)C(=O)CO`, the normalized intracellular growth reads like this: (time point: T3 (3 h)) 1.05 ± 0.022; (time point: Tfinal (~6 h)) 1.04 ± 0.079.

Regarding `CC(=O)OC1CC2CCC1(C)C2(C)C` (centres undefined), the normalized intracellular growth is, setting by setting: (time point: T3 (3 h)) 1.011 ± 0.01; (time point: Tfinal (~6 h)) 1.14 ± 0.018.

In the case of `O=c1cc[nH]c(=S)[nH]1`, the normalized intracellular growth came to 1.03 ± 0.029 (time point: T3 (3 h)) and 1.14 ± 0.035 (time point: Tfinal (~6 h)).

Regarding `O=C1CC2(CCCC2)CC(=O)N1CCCCN1CCN(c2ncccn2)CC1`, the normalized intracellular growth reads like this: (time point: T3 (3 h)) 1 ± 0.081; (time point: Tfinal (~6 h)) 0.987 ± 0.24.

For the compound `CC[C@H]1OC(=O)[C@H](C)[C@@H](O[C@H]2C[C@@](C)(OC)[C@@H](O)[C@H](C)O2)[C@H](C)[C@@H](O[C@@H]2O[C@H](C)C[C@H](N(C)C)[C@H]2O)[C@](C)(O)C[C@@H](C)[C@@H]2N[C@@H](COCCOC)O[C@H]([C@H]2C)[C@]1(C)O`, the normalized intracellular growth is, setting by setting: (time point: T3 (3 h)) 1.04 ± 0.1; (time point: Tfinal (~6 h)) 1 ± 0.14.

The compound `CCCCCCCCCCCCCCCC(=O)O[C@@H]1[C@@H](O)[C@@H](O)[C@@H]([C@H](NC(=O)[C@@H]2C[C@@H](CCC)CN2C)[C@H](C)Cl)O[C@@H]1SC` returned a normalized intracellular growth (time point: T3 (3 h)) of 1.035 ± 0.0086 and a normalized intracellular growth (time point: Tfinal (~6 h)) of 0.763 ± 0.16.

For the compound `Cc1cc(CC(=O)O)n(C)c1C(=O)c1ccc(Cl)cc1`, the normalized intracellular growth runs as follows: (time point: T3 (3 h)) 0.997 ± 0.065; (time point: Tfinal (~6 h)) 0.776 ± 0.078.

In turn, `CC(=O)Nc1ncc([N+](=O)[O-])s1` had a normalized intracellular growth (time point: T3 (3 h)) of 1.11 ± 0.057 and a normalized intracellular growth (time point: Tfinal (~6 h)) of 1.12 ± 0.048.

Turning to `CC12CCC(CC1)C(C)(C)O2`, the normalized intracellular growth is, setting by setting: (time point: T3 (3 h)) 1.02 ± 0.024; (time point: Tfinal (~6 h)) 0.96 ± 0.18.

Regarding `CC(C)C[C@@H]1NC(=O)[C@H](CCCN)NC(=O)[C@H](C(C)C)NC(=O)[C@H](Cc2ccc(O)cc2)N[C@@H](CCC(=O)O)C(=O)N[C@@H](CC(N)=O)C(=O)[C@@H](Cc2ccccc2)NC(=O)[C@H](Cc2ccccc2)NC(=O)[C@@H]2CCCN2C(=O)[C@@H](Cc2ccccc2)NC1=O`, the normalized intracellular growth (time point: T3 (3 h)) came to 0.95 ± 0.055 and the normalized intracellular growth (time point: Tfinal (~6 h)) was 1 ± 0.064.

Regarding `Nc1ccc2cc3ccc(N)cc3nc2c1`, the normalized intracellular growth runs as follows: (time point: T3 (3 h)) 1.15 ± 0.058; (time point: Tfinal (~6 h)) 1.32 ± 0.085.

`COc1ccc2cc(C(C)C(=O)O)ccc2c1` (centres undefined): the normalized intracellular growth (time point: T3 (3 h)) came out at 1.04 ± 0.036 and the normalized intracellular growth (time point: Tfinal (~6 h)) came out at 1.09 ± 0.089.

As to `CCC(=O)c1c(O)cc(O)cc1O`, the normalized intracellular growth reads like this: (time point: T3 (3 h)) 1.02 ± 0.025; (time point: Tfinal (~6 h)) 1.07 ± 0.15.

Regarding `FC(F)(Cl)C(F)(F)Cl`, the normalized intracellular growth by setting is: (time point: T3 (3 h)) 1.02 ± 0.023; (time point: Tfinal (~6 h)) 0.675 ± 0.21.

With `CC1Cc2ccccc2N1NC(=O)c1ccc(Cl)c(S(N)(=O)=O)c1` (centres undefined), the normalized intracellular growth was 0.977 ± 0.021 (time point: T3 (3 h)) and 1.15 ± 0.0069 (time point: Tfinal (~6 h)).

For `Nc1ccc(S(=O)(=O)Nc2ccnn2-c2ccccc2)cc1`, the normalized intracellular growth was found to be 1 ± 0.049 (time point: T3 (3 h)) and 1.01 ± 0.062 (time point: Tfinal (~6 h)).

Turning to `O=C(NCC(O)CO)c1c(I)c(C(=O)NCC(O)CO)c(I)c(N(CCO)C(=O)CO)c1I` (centres undefined), the normalized intracellular growth (time point: T3 (3 h)) came to 0.955 ± 0.082 and the normalized intracellular growth (time point: Tfinal (~6 h)) turned out to be 1.07 ± 0.16.

`CO/N=C(\C(=O)N[C@@H]1C(=O)N2C(C(=O)O)=C(COC(N)=O)CS[C@H]12)c1ccco1` gave a normalized intracellular growth (time point: T3 (3 h)) of 0.994 ± 0.043 and a normalized intracellular growth (time point: Tfinal (~6 h)) of 0.732 ± 0.083.

With `O=C1CN2Cc3c(ccc(Cl)c3Cl)N=C2N1`, the normalized intracellular growth runs as follows: (time point: T3 (3 h)) 1.05 ± 0.069; (time point: Tfinal (~6 h)) 1.08 ± 0.17.

With `CC(C)NCC(O)COc1ccc(COCCOC(C)C)cc1` (centres undefined), the normalized intracellular growth worked out at 0.946 ± 0.013 (time point: T3 (3 h)) and 1.16 ± 0.083 (time point: Tfinal (~6 h)).

Turning to `Nc1nc(Cl)nc2c1ncn2[C@@H]1O[C@H](CO)[C@@H](O)[C@@H]1F`, the normalized intracellular growth by setting is: (time point: T3 (3 h)) 1.01 ± 0.071; (time point: Tfinal (~6 h)) 1.03 ± 0.13.

For `CC(=O)N[C@@H](CC(C)C)C(=O)O`, the normalized intracellular growth by setting is: (time point: T3 (3 h)) 0.9533 ± 0.0091; (time point: Tfinal (~6 h)) 1.1 ± 0.13.

In the case of `Nc1nc(=O)c2nc(CNc3ccc(C(=O)N[C@@H](CCC(=O)O)C(=O)O)cc3)cnc2[nH]1`, the normalized intracellular growth runs as follows: (time point: T3 (3 h)) 1.04 ± 0.053; (time point: Tfinal (~6 h)) 0.886 ± 0.083.

For the compound `O=C([O-])[C@H]1/C(=C/CO)O[C@@H]2CC(=O)N21.[Li+]`, the normalized intracellular growth reads like this: (time point: T3 (3 h)) 1.02 ± 0.099; (time point: Tfinal (~6 h)) 0.812 ± 0.11.

With `CC[C@H]1OC(=O)[C@H](C)[C@@H](O[C@H]2C[C@@](C)(OC)[C@@H](O)[C@H](C)O2)[C@H](C)[C@@H](O[C@@H]2O[C@H](C)C[C@H](N(C)C)[C@H]2O)[C@](C)(O)C[C@@H](C)/C(=N\OCOCCOC)[C@H](C)[C@@H](O)[C@]1(C)O`, the normalized intracellular growth was 1.06 ± 0.03 (time point: T3 (3 h)) and 0.825 ± 0.42 (time point: Tfinal (~6 h)).

On to `NCCC[C@H](N)C(=O)O`, for which the normalized intracellular growth is, setting by setting: (time point: T3 (3 h)) 0.972 ± 0.048; (time point: Tfinal (~6 h)) 0.966 ± 0.13.

Turning to `NC(=O)N1c2ccccc2C=Cc2ccccc21`, the normalized intracellular growth turned out to be 1.05 ± 0.084 (time point: T3 (3 h)) and 1.05 ± 0.092 (time point: Tfinal (~6 h)).

Consider `CN(C)CCN(Cc1cccs1)c1ccccn1`, for which the normalized intracellular growth is 1.03 ± 0.066 (time point: T3 (3 h)) and 1.01 ± 0.071 (time point: Tfinal (~6 h)).

In the case of `CC(=O)OCC(COC(C)=O)OC(C)=O`, the normalized intracellular growth is, setting by setting: (time point: T3 (3 h)) 0.975 ± 0.09; (time point: Tfinal (~6 h)) 1 ± 0.1.

On to `Cc1scc2c1N(C(=O)CN1CCN(C)CC1)c1ccccc1NC2=O`, for which the normalized intracellular growth runs as follows: (time point: T3 (3 h)) 1.08 ± 0.067; (time point: Tfinal (~6 h)) 0.99 ± 0.22.
